Reference: patent publication US20060004197A1, “Sulfonamide-based compounds as protein tyrosine kinase inhibitors” (priority 2004, published 2006)
The match of structure and compound is tentative.

Protein sequences, listed by entry. Tags and fused reporters are not part of them. Residues count along the entry.
UniProt P12931, whole entry: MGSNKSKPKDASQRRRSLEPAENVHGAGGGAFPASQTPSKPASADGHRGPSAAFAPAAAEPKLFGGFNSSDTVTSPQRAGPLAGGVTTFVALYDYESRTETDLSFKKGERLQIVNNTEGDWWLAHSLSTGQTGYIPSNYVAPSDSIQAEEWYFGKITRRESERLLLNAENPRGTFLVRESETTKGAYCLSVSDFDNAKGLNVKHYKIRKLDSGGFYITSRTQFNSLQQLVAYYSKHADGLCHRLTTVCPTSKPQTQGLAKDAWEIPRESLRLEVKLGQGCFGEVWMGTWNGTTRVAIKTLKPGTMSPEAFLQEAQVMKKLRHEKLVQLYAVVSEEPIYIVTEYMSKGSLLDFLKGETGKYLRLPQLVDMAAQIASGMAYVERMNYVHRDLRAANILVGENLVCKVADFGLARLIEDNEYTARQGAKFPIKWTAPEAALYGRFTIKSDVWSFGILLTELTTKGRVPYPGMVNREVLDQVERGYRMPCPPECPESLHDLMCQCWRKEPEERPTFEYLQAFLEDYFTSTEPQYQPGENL
UniProt P41240, whole entry: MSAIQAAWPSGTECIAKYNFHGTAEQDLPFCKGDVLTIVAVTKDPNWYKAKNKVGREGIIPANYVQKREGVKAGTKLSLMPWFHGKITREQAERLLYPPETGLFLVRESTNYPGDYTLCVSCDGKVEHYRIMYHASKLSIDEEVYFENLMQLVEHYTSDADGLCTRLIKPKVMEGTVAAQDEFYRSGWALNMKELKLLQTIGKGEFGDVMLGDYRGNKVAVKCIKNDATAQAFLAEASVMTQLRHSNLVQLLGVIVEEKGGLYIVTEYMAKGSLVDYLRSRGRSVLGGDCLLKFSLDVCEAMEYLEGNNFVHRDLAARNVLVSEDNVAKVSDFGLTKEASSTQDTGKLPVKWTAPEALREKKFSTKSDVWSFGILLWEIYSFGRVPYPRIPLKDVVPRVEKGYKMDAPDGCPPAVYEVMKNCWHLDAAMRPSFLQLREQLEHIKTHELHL
UniProt P11362, 22-822 limits assumed: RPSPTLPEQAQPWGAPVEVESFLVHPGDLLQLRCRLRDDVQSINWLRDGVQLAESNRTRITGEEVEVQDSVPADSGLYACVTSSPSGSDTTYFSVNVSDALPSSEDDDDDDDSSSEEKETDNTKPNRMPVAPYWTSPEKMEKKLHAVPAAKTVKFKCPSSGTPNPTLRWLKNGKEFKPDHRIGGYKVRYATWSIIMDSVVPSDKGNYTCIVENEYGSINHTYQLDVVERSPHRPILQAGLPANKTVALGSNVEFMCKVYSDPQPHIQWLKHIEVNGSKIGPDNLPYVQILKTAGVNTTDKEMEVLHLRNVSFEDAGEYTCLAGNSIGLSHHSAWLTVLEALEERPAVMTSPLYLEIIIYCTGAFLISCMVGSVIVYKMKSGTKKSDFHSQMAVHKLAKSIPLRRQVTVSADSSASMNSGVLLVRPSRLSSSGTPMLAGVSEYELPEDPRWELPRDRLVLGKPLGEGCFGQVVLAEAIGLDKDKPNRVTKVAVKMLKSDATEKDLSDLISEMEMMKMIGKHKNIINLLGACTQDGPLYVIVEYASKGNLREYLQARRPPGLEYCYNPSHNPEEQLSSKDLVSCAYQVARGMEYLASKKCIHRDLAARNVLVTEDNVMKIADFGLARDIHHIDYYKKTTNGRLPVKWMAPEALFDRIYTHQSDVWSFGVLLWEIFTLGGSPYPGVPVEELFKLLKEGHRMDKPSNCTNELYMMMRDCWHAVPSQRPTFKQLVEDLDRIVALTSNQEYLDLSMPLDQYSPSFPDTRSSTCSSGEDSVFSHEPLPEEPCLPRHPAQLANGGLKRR

What was measured:
[1] = biological target: Recombinant human Src (Homo sapiens, UniProt P12931); assay: Src tyrosine kinase activity, poly E4Y / 32P-ATP phosphorylation assay; conditions: read-out: IC50 (μM) Src, Formula IV compounds
Protocol: Recombinant human Src was expressed using the baculovirus-insect cell system and purified as published (Budde et al., 1993 and 2000). Recombinant Csk and the FGF receptor (FGFr) were expressed as […] fusion proteins using the pGEX expression vector and E. coli, and purified as described (Sun & Budde, 1995).
The tyrosine kinase activity of Src, Csk and FGFr was determined using poly E4Y and ^32P-ATP. Briefly, enzymes were assayed in a reaction mixture consisting of 0.15 M EPPS-NaOH (pH 8.0) with 6 mM MgCl2, 0.2 mM γ^32P-ATP (0.2-0.4 mCi/μmol), 10% glycerol, 0.1% Triton X-100, and poly E4Y. Poly E4Y is a synthetic peptide whose phosphorylation is measured in this assay by the addition of the radioactively labeled phosphate from the ATP (Budde et al., 1995). For screening assays, 50 μg/ml poly E4Y was used, and for Ki determinations variable concentrations (0, 20, 30, 75, and 150 μg/ml) of poly E4Y were used. When ATP was varied (0, 50, 100 and 250 μM), poly E4Y was kept constant at 150 μg/ml. […]

[2] = biological target: Recombinant Csk (Homo sapiens, UniProt P41240); assay: Csk tyrosine kinase activity, poly E4Y / 32P-ATP phosphorylation assay; conditions: Formula IV compounds
Protocol: (§1) The tyrosine kinase activity of Src, Csk and FGFr was determined using poly E4Y and ^32P-ATP. Briefly, enzymes were assayed in a reaction mixture consisting of 0.15 M EPPS-NaOH (pH 8.0) with 6 mM MgCl2, 0.2 mM γ^32P-ATP (0.2-0.4 mCi/μmol), 10% glycerol, 0.1% Triton X-100, and poly E4Y. Poly E4Y is a synthetic peptide whose phosphorylation is measured in this assay by the addition of the radioactively labeled phosphate from the ATP (Budde et al., 1995). For screening assays, 50 μg/ml poly E4Y was used, and for Ki determinations variable concentrations (0, 20, 30, 75, and 150 μg/ml) of poly E4Y were used. When ATP was varied (0, 50, 100 and 250 μM), poly E4Y was kept constant at 150 μg/ml.

[3] = biological target: FGF receptor (FGFr) (UniProt P11362); assay: FGFr tyrosine kinase activity, poly E4Y / 32P-ATP phosphorylation assay; conditions: read-out: IC50 (μM) FGFr, Formula IV compounds
Protocol: as §1

In the case of `CCOP(=O)(OCC)Oc1cc(Oc2ccc(OC)cc2)ccc1NS(=O)(=O)c1ccc(C)cc1`, the IC50 [1] is reported as 65 µM, the “IC50 (μM) Csk” value [2] is reported as “NI (NI = no inhibition at 100 μg/mL)” and the IC50 [3] is reported as 109 µM.
